Results published in article PMC6109052.
These are yes or no findings as the source states them, for the method shown. Binding seen in cells or lysates may run through a third protein. Some binding calls cover weakened binding; strength is not graded here.

Target: GluN1 subunit of N-methyl-D-aspartic acid receptor (NMDAR) (mouse (endogenous in hippocampal synaptosomes)) (UniProt P35438)
Test: co-IP; co-immunoprecipitation from hippocampal synaptosomal preparations of mice; GluN1 N-terminus and C-terminus antibodies; bound and unbound fractions blotted

B1: Neurofilament light subunit (protein, UniProt P08551 1-543)
chain: MSSFGYDPYFSTSYKRRYVETPRVHISSVRSGYSTARSAYSSYSAPVSSSLSVRRSYSSSSGSLMPSLENLDLSQVAAISNDLKSIRTQEKAQLQDLNDRFASFIERVHELEQQNKVLEAELLVLRQKHSEPSRFRALYEQEIRDLRLAAEDATNEKQALQGEREGLEETLRNLQARYEEEVLSREDAEGRLMEARKGADEAALARAELEKRIDSLMDEIAFLKKVHEEEIAELQAQIQYAQISVEMDVSSKPDLSAALKDIRAQYEKLAAKNMQNAEEWFKSRFTVLTESAAKNTDAVRAAKDEVSESRRLLKAKTLEIEACRGMNEALEKQLQELEDKQNADISAMQDTINKLENELRSTKSEMARYLKEYQDLLNVKMALDIEIAAYRKLLEGEETRLSFTSVGSITSGYSQSSQVFGRSAYSGLQSSSYLMSARSFPAYYTSHVQEEQTEVEETIEATKAEEAKDEPPSEGEAEEEEKEKEEGEEEEGAEEEEAAKDESEDTKEEEEGGEGEEEDTKESEEEEKKEESAGEEQVAKKKD
  binding: binds
